No constants are given. Whether binding was seen depends on the method and setting. For some of these results: Binding seen in cells or lysates may run through a third protein. Some results given as binding are weak or reduced against the parent protein; the word gives no strength.

Protein sequences, listed by entry. Tags and fused reporters are not part of them.
UniProt Q9QZL0: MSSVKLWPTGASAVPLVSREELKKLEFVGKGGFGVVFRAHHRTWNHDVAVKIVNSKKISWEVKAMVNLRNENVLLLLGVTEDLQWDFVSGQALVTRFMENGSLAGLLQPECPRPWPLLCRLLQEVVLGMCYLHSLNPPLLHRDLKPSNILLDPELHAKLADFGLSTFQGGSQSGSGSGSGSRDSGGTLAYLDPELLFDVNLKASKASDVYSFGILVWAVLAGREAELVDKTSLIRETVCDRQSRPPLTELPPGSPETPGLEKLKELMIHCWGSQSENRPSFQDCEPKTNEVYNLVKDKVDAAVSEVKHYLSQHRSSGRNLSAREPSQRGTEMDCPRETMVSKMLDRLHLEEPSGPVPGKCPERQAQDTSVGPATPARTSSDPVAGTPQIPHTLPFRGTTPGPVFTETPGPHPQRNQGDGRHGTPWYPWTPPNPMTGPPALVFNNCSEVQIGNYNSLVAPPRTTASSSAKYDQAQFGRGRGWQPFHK

Experiment [1] concerns the target Receptor-interacting protein kinase 3 (mouse (endogenous in peritoneal macrophages)), Q9QZL0. Nature of the experiment: co-IP; endogenous proteins; peritoneal macrophages treated with TNF + zVAD or poly I:C + zVAD, with or without 30 min pretreatment with HG-9-91-01; lysis buffer 50 mM Tris-HCl pH 7.5, 150 mM NaCl, 1.0% Triton X-100, 1 mM EDTA, 10% glycerol; anti-RIPK3 antibody overnight at 4 °C, protein A/G magnetic beads; immunoblot. The conditions noted are these: remark: other sources report otherwise. A general note: A western blot detects proteins with antibodies after separation by electrophoresis.

Experiment [2] addresses mixed lineage kinase domain-like protein (mouse (endogenous in peritoneal macrophages)) (UniProt Q9D2Y4). Nature of the experiment: non-reducing PAGE; as a4, macrophages pretreated with HG-9-91-01 for 30 min before TNF + zVAD, LPS + zVAD or poly I:C + zVAD.
Experiment [3] deals with Receptor-interacting protein kinase 3 (mouse (endogenous in peritoneal macrophages)) (UniProt Q9QZL0). In words: co-IP; endogenous proteins; peritoneal macrophages treated with TNF + zVAD or poly I:C + zVAD, with or without 30 min pretreatment with HG-9-91-01; lysis buffer 50 mM Tris-HCl pH 7.5, 150 mM NaCl, 1.0% Triton X-100, 1 mM EDTA, 10% glycerol; anti-RIPK3 antibody overnight at 4 °C, protein A/G magnetic beads; immunoblot.

Experiment [4] deals with mixed lineage kinase domain-like protein (mouse (endogenous in peritoneal macrophages)) (UniProt Q9D2Y4). Nature of the experiment: non-reducing PAGE; peritoneal macrophages treated with TNF + zVAD, LPS + zVAD or poly I:C + zVAD; harvested in DTT-free SDS sample buffer; immunoblot with MLKL antibody.

B1: RIPK1, Q60855 1-656 (protein)
chain: MQPDMSLDNIKMASSDLLEKTDLDSGGFGKVSLCYHRSHGFVILKKVYTGPNRAEYNEVLLEEGKMMHRLRHSRVVKLLGIIIEEGNYSLVMEYMEKGNLMHVLKTQIDVPLSLKGRIIVEAIEGMCYLHDKGVIHKDLKPENILVDRDFHIKIADLGVASFKTWSKLTKEKDNKQKEVSSTTKKNNGGTLYYMAPEHLNDINAKPTEKSDVYSFGIVLWAIFAKKEPYENVICTEQFVICIKSGNRPNVEEILEYCPREIISLMERCWQAIPEDRPTFLGIEEEFRPFYLSHFEEYVEEDVASLKKEYPDQSPVLQRMFSLQHDCVPLPPSRSNSEQPGSLHSSQGLQMGPVEESWFSSSPEYPQDENDRSVQAKLQEEASYHAFGIFAEKQTKPQPRQNEAYNREEERKRRVSHDPFAQQRARENIKSAGARGHSDPSTTSRGIAVQQLSWPATQTVWNNGLYNQHGFGTTGTGVWYPPNLSQMYSTYKTPVPETNIPGSTPTMPYFSGPVADDLIKYTIFNSSGIQIGNHNYMDVGLNSQPPNNTCKEESTSRHQAIFDNTTSLTDEHLNPIRENLGRQWKNCARKLGFTESQIDEIDHDYERDGLKEKVYQMLQKWLMREGTKGATVGKLAQALHQCCRIDLLNHLIRASQS
Turning to B1, the binding result in experiment [1] is “binds”.

B2: mixed lineage kinase domain-like protein (protein, UniProt Q9D2Y4 1-472)
chain: MDKLGQIIKLGQLIYEQCEKMKYCRKQCQRLGNRVHGLLQPLQRLQAQGKKNLPDDITAALGRFDEVLKEANQQIEKFSKKSHIWKFVSVGNDKILFHEVNEKLRDVWEELLLLLQVYHWNTVSDVSQPASWQQEDRQDAEEDGNENMKVILMQLQISVEEINKTLKQCSLKPTQEIPQDLQIKEIPKEHLGPPWTKLKTSKMSTIYRGEYHRSPVTIKVFNNPQAESVGIVRFTFNDEIKTMKKFDSPNILRIFGICIDQTVKPPEFSIVMEYCELGTLRELLDREKDLTMSVRSLLVLRAARGLYRLHHSETLHRNISSSSFLVAGGYQVKLAGFELSKTQNSISRTAKSTKAERSSSTIYVSPERLKNPFCLYDIKAEIYSFGIVLWEIATGKIPFEGCDSKKIRELVAEDKKQEPVGQDCPELLREIINECRAHEPSQRPSVDGRSLSGRERILERLSAVEESTDKKV
As for B2, the figures for the binding result in experiment [2], in experiment [3] and in experiment [4] were “no binding (condition: cells pretreated with HG-9-91-01)”, “binds” and “binds”, respectively.

Source of the values: article PMC8881470.
